Source: PubChem BioAssay AID1159584 (Peter MacCallum Cancer Centre, 2016)
Shown is an unselected part of about 18,000 reagents tested. Reagent sequences are not shown. Not stated in the record: the amount of reagent, the time to read-out.

Purpose: 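Knock-downs that harm CDH1-null cells more than parental MCF10A cells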 (primary screen)
Cells: human MCF10A breast epithelial cells, parental and CDH1-null
Reagent: siRNA against human genes
Measured: 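Cell viability by CellTiter-Glo ATP luminescence, each line scaled to the mean of mock wells across plates, then CDH1-null over parental ratio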
Scale: CDH1-null / parental viability ratio: higher = CDH1-null cells survive relatively better than parental; CDH1-null viability vs mock: higher = more viable CDH1-null cells; parental viability vs mock: higher = more viable parental cells

no.	Gene	CDH1-null / parental viability ratio	CDH1-null viability vs mock (fraction of mock)	parental viability vs mock (fraction of mock)
1	SLAIN1 (GeneID 122060)	0.9	0.94	1.04
2	AGMAT (GeneID 79814)	0.95	0.76	0.8
3	COPE (GeneID 11316)	0.96	0.86	0.9
4	ZNF80 (GeneID 7634)	1.4	0.98	0.7
5	DNAH12 (GeneID 201625)	1.48	0.71	0.48
6	RPS28 (GeneID 6234)	1.85	0.48	0.26
7	OR4A15 (GeneID 81328)	1.02	0.63	0.62
8	CCDC138 (GeneID 165055)	0.94	0.94	1
9	SERPINB3 (GeneID 6317)	1.01	0.8	0.79
10	SCN4B (GeneID 6330)	1.11	0.99	0.89
11	UGT1A4 (GeneID 54657)	0.89	0.76	0.85
12	SYNJ1 (GeneID 8867)	1.06	0.74	0.7
13	KAT14 (GeneID 57325)	1.22	0.95	0.78
14	TGIF2LX (GeneID 90316)	0.95	0.82	0.86
15	WDR88 (GeneID 126248)	0.87	0.54	0.62
16	PPP1R14C (GeneID 81706)	1.22	0.9	0.74
17	CHST9 (GeneID 83539)	0.86	0.61	0.71
18	UQCC1 (GeneID 55245)	1.42	0.64	0.45
19	SLC25A22 (GeneID 79751)	1.33	0.6	0.45
20	PDK1 (GeneID 5163)	1.07	0.94	0.88
21	TEX10 (GeneID 54881)	0.88	0.61	0.69
22	BRPF3 (GeneID 27154)	0.98	0.94	0.96
23	KISS1 (GeneID 3814)	1.27	0.84	0.66
24	MYC (GeneID 4609)	1.59	0.51	0.32
25	CAMLG (GeneID 819)	1.24	1.02	0.82
26	ZFP3 (GeneID 124961)	1	1	1
27	TCAP (GeneID 8557)	0.58	0.38	0.65
28	ZNF669 (GeneID 79862)	0.81	0.63	0.78
29	SH3BP4 (GeneID 23677)	1.39	1.06	0.76
30	JPH4 (GeneID 84502)	1.19	0.88	0.74
31	FRAT2 (GeneID 23401)	1.01	0.95	0.94
32	FOXN2 (GeneID 3344)	1.05	0.86	0.82
33	PSMD3 (GeneID 5709)	1.28	0.37	0.29
34	CYP11B2 (GeneID 1585)	1.06	0.92	0.87
35	DDX12P (GeneID 440081)	0.97	0.83	0.86
36	KCNIP4 (GeneID 80333)	1.17	0.96	0.82
37	TPP2 (GeneID 7174)	1.17	0.84	0.72
38	CMTR2 (GeneID 55783)	0.85	0.88	1.03
39	GLIPR1L2 (GeneID 144321)	1.14	1.06	0.93
40	TAC3 (GeneID 6866)	1	0.9	0.9
41	GZMA (GeneID 3001)	1.01	0.68	0.67
42	ADAMTSL5 (GeneID 339366)	1.05	0.8	0.76
43	GBF1 (GeneID 8729)	1.04	0.84	0.81
44	H3-3B (GeneID 3021)	1.04	0.94	0.9
45	DNAJC18 (GeneID 202052)	0.95	0.99	1.04
46	ZIC4 (GeneID 84107)	0.91	0.77	0.85
47	ST14 (GeneID 6768)	1.09	0.62	0.57
48	SYT8 (GeneID 90019)	0.98	0.8	0.82
49	CATSPERT (GeneID 151254)	1.02	0.53	0.52
50	OLIG1 (GeneID 116448)	1.59	0.46	0.29
51	CCDC28B (GeneID 79140)	1.05	0.82	0.78
52	TSNARE1 (GeneID 203062)	0.97	0.92	0.95
53	HOXC8 (GeneID 3224)	1.01	0.83	0.82
54	HNRNPH2 (GeneID 3188)	1.24	1.04	0.84
55	USP53 (GeneID 54532)	1.11	1	0.9
56	KRT9 (GeneID 3857)	1.06	1.06	1
57	LILRB3 (GeneID 11025)	0.88	0.57	0.65
58	C17orf78 (GeneID 284099)	0.87	0.34	0.39
59	RPP25 (GeneID 54913)	1.07	0.79	0.74
60	CYLC2 (GeneID 1539)	1.1	1.06	0.96
61	LAGE3 (GeneID 8270)	0.84	0.84	1
62	BEST1 (GeneID 7439)	0.77	0.54	0.7
63	HFE (GeneID 3077)	0.93	0.7	0.75
64	LARP1 (GeneID 23367)	0.85	0.7	0.82
65	DNAAF5 (GeneID 54919)	1.15	0.78	0.68
66	VASN (GeneID 114990)	1	0.34	0.34
67	ZBTB21 (GeneID 49854)	1.46	0.92	0.63
68	NET1 (GeneID 10276)	1.04	0.94	0.9

5 successive entries already listed:
no.	Gene	CDH1-null / parental viability ratio	CDH1-null viability vs mock (fraction of mock)	parental viability vs mock (fraction of mock)
61	LAGE3 (GeneID 8270)	0.84	0.84	1
62	BEST1 (GeneID 7439)	0.77	0.54	0.7
63	HFE (GeneID 3077)	0.93	0.7	0.75
64	LARP1 (GeneID 23367)	0.85	0.7	0.82
65	DNAAF5 (GeneID 54919)	1.15	0.78	0.68
